To fix the notation:
B1: il10ra_site1_sap_14_mot_HHH_b2_05423_000000119_0001_22_38_H_._c1e259e16b19a3635eeea4582300f2e1_0001_0001_0000300028_0000001_0_0001 (protein)
chain: SSSSSSSQEELEVRVLLWFAKWANNPESARIMVKRAVEIAEKLGNEELLEEARELLEQLSSSSSS
B2: il10ra_site1_normal_mot_HHH_b1_00566_000000151_0001_22_39_H_._HHH_b2_05312_0001_0000100001_0000001_0_af2pred_dldesign_0_af2pred (protein)
chain: SSSSSRDELYEKLVEVYRLHRAGDPRWEELLAELEAAARASGDPYAVALVEAARRALLEESSSSS
B3: il10ra_site1_sap_10_mot_HHH_b2_02053_af2_000000006_0001_3_19_H_._HHH_b1_03339_af2_0001_0000200005_0000001_0_0001 (protein)
chain: SSSSDDRSEQVWELLRRALEAHKRGDEELVEELLEEAKRLAEEGNDRVMLLQVEFLEKRQSSSSS
B4: il10ra_site1_normal_mot_HHH_b2_02900_000000189_0001_39_52_H_._HHH_b2_05056_0001_0000300014_0000001_0 (protein)
chain: SSSSSEELERSVRRFLEAAEQLYEQGDPELARLAVRFALHLARSENNEELVEELEELLRRLSSSS
B5: il10ra_site1_sap_22_mot_HHH_b1_01082_af2_000000031_0001_3_19_H_._HHH_b2_00323_af2_0001_0000200008_0000001_0_0001 (protein)
chain: SSSDDAERLYELSREALELRANGNPEEAEKLLEEAEELAEELGSHTLLAAIELLLKDIRENSSSS
B6: il10ra_site1_sap_21_mot_HHH_b1_06256_000000091_0001_42_58_H_._HHH_b2_06752_0001_0000200015_0000002_0_0001 (protein)
chain: SSSSSSREEVEELLERAEEAAERGNPEEAAKLLAEAVRFAFQLQDPELLREVWEVVERVASSSSS
B7: il10ra_site1_normal_mot_HHH_b2_05532_000000217_0001_1_18_H_._HHH_b1_03058_0001_0000200028_0000001_0_af2pred_0001 (protein)
chain: SSSSSEEAEELYEEIKEELEELAKRGNEKRVQRLAIRAARELLELGNPELAKKLLKFAQELSSSS
B8: il10ra_site1_normal_mot_HHH_b2_07784_af2_000000103_0001_19_36_H_._HHH_b1_06064_af2_0001_0000100002_0000001_0 (protein)
chain: SSSSSYEEVKKLIEEIVELLRNGDREEAQKLIEELRELAEELNNPSLKFVVRLLEKELEDLSSSS
B9: il10ra_site1_normal_mot_HHH_b1_01827_000000263_0001_1_19_H_._HHH_b2_04613_af2_0001_0000400023_0000001_0 (protein)
chain: SSSSTTELFERVRELIERASELYREGNPEEAEKLLEEAERLAEEANNLLLRFSVRRALRALSSSS
B10: il10ra_site1_sap_11_mot_HHH_b1_05865_af2_000000211_0001_1_17_H_._HHH_b2_05611_0001_0000200014_0000001_0_0001_af2pred_0001 (protein)
chain: SSSSSDEKVELAIRFAKFLLEQGDPEAAEFIIRAAVELAERNGDEELLEEARELLEEIESSSSSS
B11: il10ra_site1_normal_mot_HHH_b1_04771_000000013_0001_40_56_H_._HHH_b2_02872_0001_0000100001_0000001_0 (protein)
chain: SSSSSSDEVLELSLEAFRLALRGDPEEARKVLEEALELAEERGDERLVEVIEDLLRALSSSSSSS
B12: il10ra_site1_normal_mot_HHH_b1_08411_af2_000000053_0001_1_20_H_._HHH_b2_02982_0001_0000100009_0000001_0 (protein)
chain: SSSSQEHFELTREAIERASQLFREGNREEAERLLEEVLEEVRELGNFALEFALEHLLRALSSSSS
B13: il10ra_site1_sap_20_mot_HHH_b2_06979_000000158_0001_42_57_H_._HHH_b2_07537_af2_0001_0000100009_0000001_0_0001 (protein)
chain: SSSSSDEVYEEVRRAIEEARELAKRDPEQAERVLEEALEVAEEANNWAARFSLEHLAKALSSSSS
B14: il10ra_site1_sap_21_mot_HHH_b2_03425_000000200_0001_22_39_H_._HHH_b2_08230_af2_0002_0000300021_0000001_0_0001 (protein)
chain: SSSSDEDLRKAVELARLASKARDPEELEELYEEAQELLEKVKDENARRFLRFVLADLEWLLSSSS
B15: il10ra_site1_sap_25_mot_HHH_b1_08133_000000195_0001_1_19_H_._HHH_b1_03607_0001_0000200023_0000001_0_0001_af2pred_0001 (protein)
chain: SSSSSEEVEELEEEARELIKRNDPEEVLKIIRRLARLAFRLNDPEISKIAIELAELLKKLDSSSS
B16: il10ra_site1_sap_18_mot_HHH_b1_04385_af2_000000166_0001_42_56_H_._HHH_b1_07343_0001_0000500026_0000001_0_0001 (protein)
chain: SSSSDEHVEELLREAEELLEEGNPEEALEVVFRATHFAIQAQDPELLRLVWELVRRVAELSSSSS
B17: il10ra_site1_sap_13_mot_HHH_b2_07144_000000289_0001_1_18_H_._HHH_b1_02223_af2_0001_0000400024_0000002_0_0001_af2pred_0001 (protein)
chain: SSSSDVEELRLRLVVELARAFQRGDPELAEEIVEEAEELLKEKNDPKAVELLRQAARALLSSSSS
B18: il10ra_site1_normal_mot_513c16ae44941e68898e0f7c259e5a28_0001_1_000000056_0001_35_50_H_._ems_p1-15H-GBL-16H-GABBL-16H_0222_0001_0001_0002_0001_0000400004_000000 … (protein)
chain: SSSSSSFEEVIREAQKLAEENGDREAADLLRAILRLAEQGALDERWAELSAELLEELLESSSSSS

Some of the results follow.

For this assay, the target named is il10ra, Q13651. Nature of the assay: yeast display titration.
As a reminder, the apparent Kd is a dissociation constant that holds for the conditions of the assay. Consider B1, for which the “apparent Kd” value was “inactive: no binding seen”.

Take B2: the “apparent Kd” value is “inactive: no binding seen”. With B3, the “apparent Kd” value was “inactive: no binding seen”. The result for B4 reads “inactive: no binding seen”; that for B5, “inactive: no binding seen”; that for B6, “inactive: no binding seen”. Take B7: the “apparent Kd” value is “inactive: no binding seen”.

Take B8: the “apparent Kd” value was “inactive: no binding seen”.

Take B9: the “apparent Kd” value is “inactive: no binding seen”. The result for B10 reads “inactive: no binding seen”; that for B11, “inactive: no binding seen”.

As for B12, the “apparent Kd” value was “inactive: no binding seen”.

On to B13, for which the “apparent Kd” value was “inactive: no binding seen”. Under B14 stands “inactive: no binding seen”; under B15, inactive: > 233 nM; under B16, “inactive: no binding seen”. The result for B17 reads “inactive: no binding seen”; that for B18, “inactive: no binding seen”.

Source of the values: paper PMC10163288.
